Source: PubChem BioAssay AID493014 (National Center for Advancing Translational Sciences (NCATS), 2011)
About 170 (0.05%) of roughly 340,000 compounds were called active. Inconclusive means that the source gave no clear call. Such entries were picked first, then a sample of the others. Calls follow the shape of the dose curve; as a rule, active = well fitted inhibition curve with a large enough effect in the signal ratio, with a control signal flat (not every such curve was filed as active); inconclusive = small, poorly fitted or top-dose-only effect, or effect the other way, or a change in a side signal; inactive = flat fitted curve, though single readings scatter; the % refers to the signal ratio. Potencies beside an inconclusive call are fits to weak or partial responses and may not hold up.
Potency is read from the fitted curve at half-maximal effect.

Assay: qHTS Assay to Find Inhibitors of Chronic Active B-Cell Receptor Signaling;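 as to activity change, negative = inhibition: plate controls were basal doxycycline-induced cells for no effect and cells given 10 µM MG132 for full effect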
Conditions: ABC-DLBCL IkBa-CBG/CBR reporter, luminescence ratio (green luciferase fused to IkBa over red control in TMD8 lymphoma cells), 4 h; activity change, negative = inhibition: at 46.1 µM (top of the series)
Procedure, shortened: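 TMD8 ABC-DLBCL cells carrying doxycycline-inducible green luciferase fused to IkappaBalpha plus unfused red luciferase were exposed to compounds (up to 46 uM) for 4 hrs at 37C. Activity came from the overlap-corrected green/red luminescence ratio.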
With `COc1ccc(NC(=O)COC(=O)[C@@H]2CCCN2C(=O)c2cccs2)cc1` the activity change, negative = inhibition was inconclusive: 13.1%. In the case of `Cc1ccc([N+](=O)[O-])cc1S(=O)(=O)Nc1cccc(S(=O)(=O)Nc2ccccc2C(=O)O)c1`, the “activity change, negative = inhibition” value is reported as inactive: 3.58%. In the case of `Cc1nn(-c2ccccc2)c(Cl)c1C(=O)NNC(=O)c1ccccc1O`, the activity change, negative = inhibition is reported as inconclusive: -5.22%. In the case of `OCCCNc1ncnc2scc(-c3ccc(Cl)cc3)c12`, the “activity change, negative = inhibition” value is reported as inactive: -15.5%. For `CC(C)C(c1nnnn1C1CCCC1)N1CCCCC1` (stereo not drawn), the Potency was inconclusive: 29.1 µM [rising, single point]. In the case of `O=C(Nc1ccccc1O)c1nc(Cl)ccc1Cl`, the Potency is reported as inconclusive: 0.316 µM [falling, full curve, poor fit]. For `CC(C)C(=O)Nc1ccc2c(c1)Cc1cc(NC(=O)C(C)C)ccc1-2`, the activity change, negative = inhibition was inconclusive: -1.46%. In the case of `Cc1ccc(-n2nc(C)c3c2OC(N)=C(C#N)C3c2ccoc2)cc1` (stereo not drawn), the activity change, negative = inhibition is reported as inconclusive: -8.67%. With `CC1Cc2ccccc2N1CC(=O)Nc1ccc2c(c1)OCO2` (stereo not drawn) the Potency was inconclusive: 0.206 µM [falling, full curve, poor fit]. For `O=C(c1ccccc1)N1CCN(c2n[nH]c(=O)[nH]c2=O)CC1`, the activity change, negative = inhibition was inconclusive: -8.55%. In the case of `O=C(COc1ccc(Cl)cc1Cl)NNC(=S)NCc1ccco1`, the “activity change, negative = inhibition” value is reported as inactive: -29.2%. For `Clc1ccc(OCCCN2CCc3ccccc3C2)c(Br)c1`, the “activity change, negative = inhibition” value was inactive: -0.171%. In the case of `CC1CCCCC12NC(=O)N(CC(=O)Nc1ccc(OC(F)F)cc1)C2=O` (stereo not drawn), the “activity change, negative = inhibition” value is reported as inactive: -1.56%. With `Cc1cccc(NC(=O)COc2ccccc2C)n1` the activity change, negative = inhibition was inconclusive: 14.9%. For `COc1ccc2[nH]c3c(c2c1)CCN1C(=O)C(CC(=O)NCCC2=CCCCC2)C[C@H](C(=O)N2CCCCC2)[C@@]31CCc1ccccc1` (stereo partly drawn), the activity change, negative = inhibition was inconclusive: 1.88%. With `O=C(Cc1ccccc1)N1CCC(c2nc3ccccc3[nH]2)CC1` the activity change, negative = inhibition was inconclusive: 26.1%. With `CCOC(=O)c1c(S(=O)(=O)N2CCCC(C(=O)Nc3cccc(C#N)c3)C2)c(C)n(C)c1C` (stereo not drawn) the “activity change, negative = inhibition” value was inactive: 6.87%. In the case of `COc1cccc(C(=O)N2CCN(C(=O)c3cccc4ccccc34)CC2)c1OC`, the activity change, negative = inhibition is reported as inconclusive: 0.997%. In the case of `CC(C)(C)c1csc(NC(=O)Cn2c(=O)oc3ccccc32)n1`, the “activity change, negative = inhibition” value is reported as inactive: 7.76%. For `CCCCCc1ccc(OCCCC[n+]2ccccc2)c(CCCCC)c1`, the activity change, negative = inhibition was inconclusive: -17.4%. With `COc1ccc(NC(=O)COC(=O)Cn2cnc3ccccc3c2=O)cc1OC` the activity change, negative = inhibition was inconclusive: 0.368%. With `O=c1oc2ccccc2nc1/C=C(\O)c1ccccc1` the Potency was inconclusive: 20 µM [falling, single point]. In the case of `C=CCNC(=O)C1CC1(c1ccc(C)cc1)c1ccc(C)cc1` (stereo not drawn), the activity change, negative = inhibition is reported as inconclusive: -0.332%. In the case of `Cc1ccc(NC(=O)Cc2nc(COC(=O)Cc3cccc(C(F)(F)F)c3)cs2)cc1`, the activity change, negative = inhibition is reported as inconclusive: 10.4%. With `Cc1ccc(NC(=O)C2=NNC(=O)CC2)cc1F` the activity change, negative = inhibition was inconclusive: -10.9%. For `CC(=O)[C@@]1(O)CC[C@H]2[C@@H]3C[C@H](C)C4=CC(=O)CC[C@]4(C)[C@H]3CC[C@@]21C`, the activity change, negative = inhibition was inconclusive: -19.9%. For `CS(=O)(=O)N(CC(=O)Nc1ccccc1C(=O)NCc1ccco1)c1ccc2c(c1)OCCO2`, the Potency was inconclusive: 16.4 µM [falling, partial curve]. In the case of `Cc1cccc2sc(NC(=O)C3CC3)nc12`, the “activity change, negative = inhibition” value is reported as inactive: -8.85%. For `COc1cc(C(Nc2ccccn2)c2ccc3ccc(C)nc3c2O)cc(OC)c1O` (stereo not drawn), the Potency was inconclusive: 3.16 µM [falling, partial curve, poor fit]. In the case of `O=C(Nc1ccccc1O)c1ccc([N+](=O)[O-])cc1`, the Potency is reported as inconclusive: 22.4 µM [falling, single point]. With `Cc1cccc(NC(=O)c2ccc(C3SCC(=O)N3CCc3ccccc3)cc2)c1C` (stereo not drawn) the activity change, negative = inhibition was inconclusive: 22.7%. With `CC(C)CNC(=O)c1ccccc1NC(=O)c1ccc(CSc2ccccc2)cc1` the activity change, negative = inhibition was inconclusive: 19.3%. With `O=C(/C=C/c1cccc(O)c1)c1cccnc1` the activity change, negative = inhibition was inconclusive: -11%. For `S=c1nn[nH]n1C12CC3CC(CC(C3)C1)C2`, the Potency was inconclusive: 7.31 µM [falling, partial curve]. With `O=C(CC1Nc2cccc3cccc(c23)NC1=O)Nc1ccccc1` (stereo not drawn) the activity change, negative = inhibition was inconclusive: 10.1%. In the case of `CCc1ccc(OCC(=O)NNC(=O)Cc2ccc(S(=O)(=O)N3CCOCC3)s2)cc1`, the activity change, negative = inhibition is reported as inconclusive: 8.44%. With `O=c1[nH]c2ccccc2cc1CN(Cc1ccco1)S(=O)(=O)c1ccc(F)cc1` the Potency was inconclusive: 20 µM [falling, single point]. For `COc1cccc(/C=N/n2cnc3ccccc32)c1OC`, the Potency was inconclusive: 0.164 µM [rising, full curve]. For `Cc1ccc(C(=O)c2cn[nH]c2-c2cc(Cl)ccc2O)cc1`, the “activity change, negative = inhibition” value was inactive: -12.8%. For `CCc1cc2c(SCC(=O)NC3CC3)ncnc2s1`, the activity change, negative = inhibition was inconclusive: -11.8%. In the case of `Cc1csc(SCc2ccc(C(=O)O)cc2)n1`, the Potency is reported as inconclusive: 20.6 µM [falling, single point]. With `O=C(Nc1cccc(S(=O)(=O)NC2=NCCCCC2)c1)c1ccc(Cl)cc1` the activity change, negative = inhibition was inconclusive: 15.9%. For `CC1(C)CC(NC(=S)NC2CC2)CC(C)(C)N1`, the “activity change, negative = inhibition” value was inactive: 7.18%. For `Cc1cc(NC(=O)c2cccs2)no1`, the activity change, negative = inhibition was inconclusive: 2.28%. In the case of `S=C(NCCC(c1ccccc1)c1ccccc1)Nc1ccccc1Cl`, the activity change, negative = inhibition is reported as inconclusive: 3.67%. In the case of `Cc1ccccc1C(=O)Nc1nnc(-c2cccnc2)o1`, the Potency is reported as inconclusive: 11.2 µM [falling, partial curve]. For `COc1ccccc1/C=C/C(=O)Nc1cccc(S(=O)(=O)NC2=NCCCCC2)c1`, the Potency was inconclusive: 17.8 µM [falling, partial curve]. For `COc1ccc(C(=O)NNC(=O)C2CC=CCC2)cc1` (stereo not drawn), the Potency was inconclusive: 28.2 µM [falling, single point]. For `Cc1ccc(C)c(NC(=O)COC(=O)c2ccc3ccccc3n2)c1`, the activity change, negative = inhibition was inconclusive: 2.56%. With `CC(=O)Nc1cccc(C(=O)OC(C)C(=O)NCc2ccc3c(c2)OCO3)c1` (stereo not drawn) the activity change, negative = inhibition was inconclusive: 0.677%. In the case of `NC1=NC[C@H](Cc2ccccc2)N1CCCCC1CCCCC1`, the “activity change, negative = inhibition” value is reported as inactive: -12.6%. With `Cn1nc(-c2ccccc2)c2cc(C(=O)O)sc21` the activity change, negative = inhibition was inconclusive: -11.2%. For `O=C(CCCOc1ccc(Cl)cc1Cl)Nc1ccncc1`, the activity change, negative = inhibition was inconclusive: 18.2%.
